According to article doi:10.1101/2021.02.16.431366:
Results are given in words; binding and its absence hold for the method and conditions named. In cells and extracts the contact can be indirect. Some binding calls cover weakened binding; strength is not graded here.

Experiments:
[1] = target: T1, TRPV5 distal helix peptide (rabbit); assay: pull-down
T1 sequence (peptide, Biotin-C6 on the N-terminus): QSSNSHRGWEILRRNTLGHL

[2] = target: T2, TRPV5 proximal helix peptide (rabbit); assay: pull-down
T2 sequence (peptide, Biotin-C6 on the N-terminus): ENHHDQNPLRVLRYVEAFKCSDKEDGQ

Row | Substance | binding [1] | binding [2]
1 | GST-N-lobe (from UniProt P0DP29 1-80) (domain or fragment) | binds weakly | binds weakly
2 | GST-C-lobe (from UniProt P0DP29 81-149) (domain or fragment) | binds | –
